The exact form of at least one protein or probe is not confirmed. For some assays here: At least one verdict was read from the data and is not stated in words by the source.
How the values were obtained:
PBX1 1-308 + PREP1 1-344 [1] = assay: EMSA; conditions: 2.5 uM complex, 1:1 with DNA, 1 ug poly(dIdC), EMSA: 20 mM Tris pH 7.4, 150 mM NaCl, 5% glycerol, 1 mM DTT, 30 min at 4 C (Fig 6 legend) or 15 min after room-temperature assembly (Methods), recombinant protein, label: none (GelRed stain)
[2] = tested on: PBX1 full length + PREP1 full length; assay: EMSA; conditions: 2.5 uM complex, 1:1 with DNA, 1 ug poly(dIdC), EMSA: 20 mM Tris pH 7.4, 150 mM NaCl, 5% glycerol, 1 mM DTT, 30 min at 4 C (Fig 6 legend) or 15 min after room-temperature assembly (Methods), recombinant protein, label: none (GelRed stain)
PBX1 1-308 + PREP1 1-344 [3] = assay: static light scattering (SEC); conditions: mass of DNA-bound complex agrees with theoretical; recombinant protein; label: none (GelRed stain)

TAGTGACAGAA (double strand) [O1 11 bp]
binding result (PBX1 1-308 + PREP1 1-344 [1]): binds
binding result [2]: binds
binding result (PBX1 1-308 + PREP1 1-344 [3]): binds

TCCTGAGGTGACAGAAGGAAG (double strand) [O1 22 bp (printed as 21 bp in Table 2)]
binding result (PBX1 1-308 + PREP1 1-344 [1]; no second band): binds
binding result ([2]; second minor retarded band): binds

From paper PMC4391845
